According to patent publication US20120329854A1, “Methods and Compounds for the Diagnosis and Treatment for Cancer” (UNIVERSITÄTSKLINIKUM FREIBURG, priority 2009, published 2012):
No constants are given. Whether binding was seen depends on the method and setting. Some entries that bind do so weakly or less than the wild type.

Protein sequences, listed by entry. Tags and fused reporters are not part of them. Lines headed by an entry give the natural chain unless they say otherwise; changes in a name come on top.
UniProt P10275: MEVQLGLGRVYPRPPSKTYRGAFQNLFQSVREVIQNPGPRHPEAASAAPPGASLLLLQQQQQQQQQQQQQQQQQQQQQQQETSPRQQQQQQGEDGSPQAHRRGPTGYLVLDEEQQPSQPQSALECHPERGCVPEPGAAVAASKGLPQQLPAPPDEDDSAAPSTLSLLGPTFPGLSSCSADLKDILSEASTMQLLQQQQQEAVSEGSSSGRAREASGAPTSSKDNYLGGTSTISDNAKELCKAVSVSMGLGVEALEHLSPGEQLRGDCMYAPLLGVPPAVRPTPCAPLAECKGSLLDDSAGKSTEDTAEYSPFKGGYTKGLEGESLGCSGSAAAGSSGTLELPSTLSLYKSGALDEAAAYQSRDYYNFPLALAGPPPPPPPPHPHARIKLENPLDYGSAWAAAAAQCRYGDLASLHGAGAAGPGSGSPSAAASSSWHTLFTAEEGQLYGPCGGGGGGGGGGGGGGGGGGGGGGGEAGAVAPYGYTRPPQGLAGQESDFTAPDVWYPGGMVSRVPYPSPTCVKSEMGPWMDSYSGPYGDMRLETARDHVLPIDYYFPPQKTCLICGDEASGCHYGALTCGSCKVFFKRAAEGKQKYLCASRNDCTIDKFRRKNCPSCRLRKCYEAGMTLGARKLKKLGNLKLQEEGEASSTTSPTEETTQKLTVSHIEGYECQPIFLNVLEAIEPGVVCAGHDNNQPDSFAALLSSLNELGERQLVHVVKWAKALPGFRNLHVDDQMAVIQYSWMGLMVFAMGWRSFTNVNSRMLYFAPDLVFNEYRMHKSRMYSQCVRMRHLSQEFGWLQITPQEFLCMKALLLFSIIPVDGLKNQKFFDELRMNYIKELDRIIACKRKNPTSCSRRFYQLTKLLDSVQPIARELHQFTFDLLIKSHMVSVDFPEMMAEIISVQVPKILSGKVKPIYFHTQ
UniProt P05771: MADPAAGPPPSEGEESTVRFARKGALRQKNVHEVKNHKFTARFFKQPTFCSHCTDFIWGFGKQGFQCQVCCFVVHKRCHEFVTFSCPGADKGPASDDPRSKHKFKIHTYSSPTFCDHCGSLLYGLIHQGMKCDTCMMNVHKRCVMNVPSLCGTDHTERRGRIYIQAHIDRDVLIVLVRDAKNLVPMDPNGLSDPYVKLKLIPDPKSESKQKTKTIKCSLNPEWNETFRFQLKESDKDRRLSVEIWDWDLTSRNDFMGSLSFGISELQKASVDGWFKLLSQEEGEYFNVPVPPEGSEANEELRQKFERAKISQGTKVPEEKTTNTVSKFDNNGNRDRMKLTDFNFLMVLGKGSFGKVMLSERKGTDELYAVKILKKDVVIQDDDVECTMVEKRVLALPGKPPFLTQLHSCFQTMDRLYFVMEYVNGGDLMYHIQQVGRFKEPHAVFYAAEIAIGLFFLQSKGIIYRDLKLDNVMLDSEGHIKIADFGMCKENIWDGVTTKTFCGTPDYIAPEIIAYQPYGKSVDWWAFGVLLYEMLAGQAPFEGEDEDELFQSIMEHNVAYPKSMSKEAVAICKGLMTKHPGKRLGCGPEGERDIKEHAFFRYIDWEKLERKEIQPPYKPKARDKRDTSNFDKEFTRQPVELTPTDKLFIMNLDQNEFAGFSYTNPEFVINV

Target: androgen receptor (AR), endogenous in LNCaP cells (human) (UniProt P10275)
Assay: Re-ChIP in R1881-treated LNCaP cells, first α-AR then α-PKCβI, KLK2 and FKBP5 promoters

- binding: binds
Substance: protein kinase C beta 1 (PKCβI), endogenous in LNCaP cells (from UniProt P05771 2-671) (enzyme)
